PubChem BioAssay AID1259405 – NCATS, 2018
Purpose: 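Mouse-designed siRNAs used to find CHO productivity engineering targets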 (primary screen). Cell system: Chinese hamster CHO-K1 ovary cells with stable secreted eGFP expression. Reagent: single siRNA against mouse genes, 0.8 pmol siRNA per well (2 µl of 400 nM stock). Time to read-out: 3 days. Measured: 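Percent of the per-plate non-targeting control median for intracellular GFP per well by laser scanning cytometry and for cell viability by ATP luminescence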. Direction: GFP, % of control: higher = more GFP per well, higher productivity; viability (ATP), % of control: higher = more viable cells (more ATP). Call rule: 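Called active when intracellular GFP, relative to negative control, is at or above 120%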.
This is one part, drawn at random, of about 50,000 reagents. Of all reagents, about 4,000 (8%) got an active call. 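Mouse siRNA library applied to hamster cells; one well for each siRNA.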 Reagents against one gene are numbered here. Reagent sequences are not shown.

| GFP, % of control | viability (ATP), % of control | call | gene symbol | reagent |
| --- | --- | --- | --- | --- |
| 116 | 75.9 | inactive | Tex14 (testis expressed gene 14 intercellular bridge forming factor) | 1 |
| 98.2 | 72.9 | inactive | Tex14 (testis expressed gene 14 intercellular bridge forming factor) | 2 |
| 47.2 | 43.1 | inactive | Tex14 (testis expressed gene 14 intercellular bridge forming factor) | 3 |
| 72.4 | 86.3 | inactive | Dhx35 (DEAH-box helicase 35) | 1 |
| 96.9 | 92.3 | inactive | Dhx35 (DEAH-box helicase 35) | 2 |
| 56.9 | 84.7 | inactive | Dhx35 (DEAH-box helicase 35) | 3 |
| 73.5 | 85.9 | inactive | Rasgrp4 (RAS guanyl releasing protein 4) | 1 |
| 75.4 | 84.4 | inactive | Rasgrp4 (RAS guanyl releasing protein 4) | 2 |
| 24.4 | 32.6 | inactive | Rasgrp4 (RAS guanyl releasing protein 4) | 3 |
| 45.1 | 43.2 | inactive | Or9k2b (olfactory receptor family 9 subfamily K member 2B) | 1 |
| 86.1 | 90.3 | inactive | Or9k2b (olfactory receptor family 9 subfamily K member 2B) | 2 |
| 69.7 | 59.9 | inactive | Or9k2b (olfactory receptor family 9 subfamily K member 2B) | 3 |
| 110 | 72.5 | inactive | Gstm2 (glutathione S-transferase, mu 2) | 1 |
| 88.8 | 153 | inactive | Gstm2 (glutathione S-transferase, mu 2) | 2 |
| 107 | 110 | inactive | Gstm2 (glutathione S-transferase, mu 2) | 3 |
| 99.9 | 129 | inactive | Zfp219 (zinc finger protein 219) | 1 |
| 57.3 | 79.1 | inactive | Zfp219 (zinc finger protein 219) | 2 |
| 80 | 89.2 | inactive | Zfp219 (zinc finger protein 219) | 3 |
| 46.1 | 69.3 | inactive | Rwdd4a (RWD domain containing 4A) | 1 |
| 65.3 | 83 | inactive | Rwdd4a (RWD domain containing 4A) | 2 |
| 127 | 152 | active | Rwdd4a (RWD domain containing 4A) | 3 |
| 48.1 | 86.2 | inactive | Ptpn21 (protein tyrosine phosphatase, non-receptor type 21) | 1 |
| 87.2 | 68.5 | inactive | Ptpn21 (protein tyrosine phosphatase, non-receptor type 21) | 2 |
| 63.1 | 88.3 | inactive | Ptpn21 (protein tyrosine phosphatase, non-receptor type 21) | 3 |
| 60 | 73.7 | inactive | Or52a24 (olfactory receptor family 52 subfamily A member 24) | 1 |
| 70.3 | 77.4 | inactive | Or52a24 (olfactory receptor family 52 subfamily A member 24) | 2 |
| 102 | 101 | inactive | Or52a24 (olfactory receptor family 52 subfamily A member 24) | 3 |
| 104 | 118 | inactive | Tbc1d10b (TBC1 domain family, member 10b) | 1 |
| 60.7 | 49 | inactive | Tbc1d10b (TBC1 domain family, member 10b) | 2 |
| 60.9 | 54.1 | inactive | Tbc1d10b (TBC1 domain family, member 10b) | 3 |
| 77.1 | 85.5 | inactive | Ptprm (protein tyrosine phosphatase receptor type M) | 1 |
| 49.4 | 64.7 | inactive | Ptprm (protein tyrosine phosphatase receptor type M) | 2 |
| 121 | 90.5 | active | Ptprm (protein tyrosine phosphatase receptor type M) | 3 |
| 80.2 | 93.3 | inactive | Ctsw (cathepsin W) | 1 |
| 101 | 40.7 | inactive | Ctsw (cathepsin W) | 2 |
| 92.4 | 61.8 | inactive | Ctsw (cathepsin W) | 3 |

An excerpt from above, limited to “viability (ATP), % of control”.
Tex14 (testis expressed gene 14 intercellular bridge forming factor) #2 = 72.9
Tex14 (testis expressed gene 14 intercellular bridge forming factor) #3 = 43.1
Dhx35 (DEAH-box helicase 35) #1 = 86.3
Dhx35 (DEAH-box helicase 35) #2 = 92.3
Dhx35 (DEAH-box helicase 35) #3 = 84.7
